Experimental data: PubChem BioAssay AID1053208 (Peter MacCallum Cancer Centre, 2014)
The deposit covers about 17,000 reagents; shown is an unselected part. 788 of all reagents (4.7%) count as active. 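Calls rest on z-score classes alone; an extra cut-off of viability at most 70% of control was not applied to them.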 Unmarked entries are inactive. The numbers tell different reagents against one gene apart. Not all columns of the deposit are shown.

- Screen: 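Genes whose silencing cuts survival of bone tumour cells only with doxorubicin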 (primary screen)
- System: mouse osteosarcoma cells, early-passage culture from an engineered mouse model of fibroblastic bone tumour
- Reagents: siRNA pool against mouse genes, 40 nM
- Timing: about 120 h (48 h before drug, then 72 h with drug)
- Conditions: doxorubicin 100 nM for 72 h, roughly 30-40% inhibitory dose
- Measurement: 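Viability read as ATP luminescence after 72 h of 100 nM doxorubicin or none, duplicate wells averaged, scaled to non-targeting siRNA, then expressed as robust z-scores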
- Reading the numbers: viability z-score with doxorubicin: higher = more viable cells under doxorubicin; viability z-score without drug: higher = more viable cells with knock-down alone
- Hit rule: 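a pool counts as active when its viability z-score with doxorubicin is -2 or below and its z-score without drug lies between -2 and 2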

Gene | pool no. | combined z-score class | viability z-score with doxorubicin | viability z-score without drug
Xpo7 (exportin 7) | 1 | no change with or without drug | -0.67 | 0.51
Xpo7 (exportin 7) | 2 | no change with or without drug | -1.01 | -1.85
Cmklr1 (chemerin chemokine-like receptor 1) | 1 | no change with or without drug | 0.34 | 1.18
Zbtb8b (zinc finger and BTB domain containing 8b) | 1 | no change with or without drug | -1.57 | 0.17
Cdc23 (CDC23 cell division cycle 23) | 1 | low cell count with doxorubicin only (active) | -3.15 | -0.34
Gsap (gamma-secretase activating protein) | 1 | no change with or without drug | 0.56 | 0.84
Lnx2 (ligand of numb-protein X 2) | 1 | no change with or without drug | -1.12 | 0.17
Cyp4a31 (cytochrome P450, family 4, subfamily a, polypeptide 31) | 1 | no change with or without drug | -0.22 | -0.51
Josd2 (Josephin domain containing 2) | 1 | no change with or without drug | 1.57 | 1.85
Cep290 (centrosomal protein 290) | 1 | no change with or without drug | 0 | 0.51
Accs (1-aminocyclopropane-1-carboxylate synthase (inactive)) | 1 | no change with or without drug | 1.12 | -0.84
Kank4 (KN motif and ankyrin repeat domains 4) | 1 | no change with or without drug | -0.11 | 0.34
Sacm1l (SAC1 suppressor of actin mutations 1-like (yeast)) | 1 | no change with or without drug | -0.9 | 0.17
Fbxo2 (F-box protein 2) | 1 | no change with or without drug | -1.12 | 0
Obsl1 (obscurin-like 1) | 1 | no change with or without drug | -0.56 | -1.01
Tgoln1 (trans-golgi network protein) | 1 | no change with or without drug | -1.57 | -1.18
Mrpl35 (mitochondrial ribosomal protein L35) | 1 | no change with or without drug | 0.34 | -0.34
Ube2r2 (ubiquitin-conjugating enzyme E2R 2) | 1 | no change with or without drug | -0.45 | 0.17
Or52a33 (olfactory receptor family 52 subfamily A member 33) | 1 | no change with or without drug | -0.22 | 0.34

6 of these entries in another layout.
{"Gene":"Sacm1l (SAC1 suppressor of actin mutations 1-like (yeast))","pool no.":1,"combined z-score class":"no change with or without drug","viability z-score with doxorubicin":-0.9,"viability z-score without drug":0.17}
{"Gene":"Fbxo2 (F-box protein 2)","pool no.":1,"combined z-score class":"no change with or without drug","viability z-score with doxorubicin":-1.12,"viability z-score without drug":0}
{"Gene":"Obsl1 (obscurin-like 1)","pool no.":1,"combined z-score class":"no change with or without drug","viability z-score with doxorubicin":-0.56,"viability z-score without drug":-1.01}
{"Gene":"Tgoln1 (trans-golgi network protein)","pool no.":1,"combined z-score class":"no change with or without drug","viability z-score with doxorubicin":-1.57,"viability z-score without drug":-1.18}
{"Gene":"Mrpl35 (mitochondrial ribosomal protein L35)","pool no.":1,"combined z-score class":"no change with or without drug","viability z-score with doxorubicin":0.34,"viability z-score without drug":-0.34}
{"Gene":"Ube2r2 (ubiquitin-conjugating enzyme E2R 2)","pool no.":1,"combined z-score class":"no change with or without drug","viability z-score with doxorubicin":-0.45,"viability z-score without drug":0.17}

Next entries follow:
Gene | pool no. | combined z-score class | viability z-score with doxorubicin | viability z-score without drug
Copg1 (coatomer protein complex, subunit gamma 1) | 1 | low cell count with and without drug | -5.06 | -2.19
Rcc2 (regulator of chromosome condensation 2) | 1 | no change with or without drug | -0.22 | -0.67
Erich5 (glutamate rich 5) | 1 | no change with or without drug | -0.45 | -0.51
Rars1 (arginyl-tRNA synthetase 1) | 1 | high cell count with and without drug | 2.25 | 2.53
Prkcz (protein kinase C, zeta) | 1 | no change with or without drug | 1.35 | 0.67
Vmn1r198 (vomeronasal 1 receptor 198) | 1 | low cell count with doxorubicin only (active) | -2.47 | 0.51
Ly96 (lymphocyte antigen 96) | 1 | no change with or without drug | 0.67 | -0.84
Eid2 (EP300 interacting inhibitor of differentiation 2) | 1 | no change with or without drug | -1.8 | 0.51
Ndufa10 (NADH:ubiquinone oxidoreductase subunit A10) | 1 | no change with or without drug | 0.67 | -0.84
Mt1 (metallothionein 1) | 1 | high cell count with and without drug | 2.14 | 2.87
Krt72 (keratin 72) | 1 | no change with or without drug | 0.45 | 0.17
Ubb (ubiquitin B) | 1 | no change with or without drug | -1.57 | -1.52
Asah2 (N-acylsphingosine amidohydrolase 2) | 1 | no change with or without drug | -0.11 | 0.17
Fgd6 (FYVE, RhoGEF and PH domain containing 6) | 1 | no change with or without drug | 0.9 | 0.51
B230219D22Rik (RIKEN cDNA B230219D22 gene) | 1 | no change with or without drug | 0.9 | 0.51
